This passage reports binding signal results from PMC7819943, “Rice protein-binding microarrays: a tool to detect cis-acting elements near promoter regions in rice”.

Chains of the proteins cited; added tags and fusions are not shown.
UniProt Q0JBA9, entry or part of it: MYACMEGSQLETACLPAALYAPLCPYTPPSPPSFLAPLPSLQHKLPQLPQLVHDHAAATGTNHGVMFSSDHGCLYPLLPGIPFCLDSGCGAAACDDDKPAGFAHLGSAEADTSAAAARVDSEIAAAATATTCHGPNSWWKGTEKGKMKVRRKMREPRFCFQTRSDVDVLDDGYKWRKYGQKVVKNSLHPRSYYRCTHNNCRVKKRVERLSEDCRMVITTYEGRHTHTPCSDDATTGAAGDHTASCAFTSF

This is one part of the list.

The target in the experiment is OsWRKY34 (Oryza sativa, UniProt Q0JBA9 1-250). The experiment in a line: protein-binding microarray (RPBM); PBS, 2% BSA, 51.3 ng/ul salmon testes DNA, 50 uM zinc acetate, 200 nM TF, 25 C, 1 h; high values mean tight binding. Particulars: protein: recombinant; tags: N-terminal polyhistidine and DsRed monomer fusion (pET32a); label: CyDye5-dUTP incorporated in the synthesized complementary strand; 3' TTTTT single-stranded linker to array surface; dsDNA, one strand shown. An outline of the steps: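 Transcription factors were each fused at the N-terminus to a polyhistidine tag plus DsRed and expressed in E. coli BL21-CodonPlus before Ni–NTA purification. Binding to a double-stranded custom Agilent array was carried out with 200 nM protein at 25 °C for 1 h in PBS, 2% BSA, salmon testes DNA and 50 µM zinc acetate. The binding signal is per-feature fluorescence intensity, in arbitrary units, on an Axon 4000B scanner.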
Regarding “TGTGCCAAATTTTTTTTTTATATACGGATGCACATTTGAACGGAGTCACCTAGTGCAG”, the binding signal was 8390 fluorescence intensity (a.u.).
With “CCACCTCTCTCTCTCTCTCTCCCACGCCACGCCACGCCACCGGAGTCACCTAGTGCAG”, the binding signal is 8140 fluorescence intensity (a.u.).
As to “TGCACATCTTCAGTATACTCGTGGCATCAATTATCTTCTCCGGAGTCACCTAGTGCAG”, the binding signal was 9380 fluorescence intensity (a.u.).
In the case of “CAAGGTTTGCCTCCACCTCTCTTGCATTTCCTATTCTCTCCGGAGTCACCTAGTGCAG”, the binding signal is 9600 fluorescence intensity (a.u.).
Next, “CATTTATTGTAGTTTAGACCATCTTACCTTTCTTCTATAGCGGAGTCACCTAGTGCAG”: 8100 fluorescence intensity (a.u.); “AGATTTGACTATCCTGCTGGAATCCGGTAACAATTTTTCACGGAGTCACCTAGTGCAG”: 9560 fluorescence intensity (a.u.).
Consider “CATTCACATCACTTATTTTGCTTCTGCTATGCTACGCCATCGGAGTCACCTAGTGCAG”, for which the binding signal was 8180 fluorescence intensity (a.u.).
Consider “CTCCTCAGCTAGTTGCTTGTCCCACACCACATCTTTCTTTCGGAGTCACCTAGTGCAG”, for which the binding signal was 12900 fluorescence intensity (a.u.).
Consider “GGGTTTTTTTTATCAAAGTTAATTTTTCAGCTTGTGCTTTCGGAGTCACCTAGTGCAG”, for which the binding signal is 10400 fluorescence intensity (a.u.).
Next, “CTAACCAATCTCTCATTCTCTCTACCAACTCGACCAACCTCGGAGTCACCTAGTGCAG”: 9960 fluorescence intensity (a.u.); “CCATGGTTTTTTGCGCCCAGTTTTGACCGTTCGTCTTATTCGGAGTCACCTAGTGCAG”: 13000 fluorescence intensity (a.u.).
For the sequence “AGGGTTTCCGGCGGGGAGGGAAAGGTCTGGTATTTTTCTGCGGAGTCACCTAGTGCAG”, the binding signal is 13800 fluorescence intensity (a.u.).
For the sequence “AGAACTCTACTGTACGTACTAATCGCTGTCGAACTATAGTCGGAGTCACCTAGTGCAG”, the binding signal is 9210 fluorescence intensity (a.u.).
With “GTCACCACCGCTCTGGTCCTTGCCCGCATGCCACCGTCAACGGAGTCACCTAGTGCAG”, the binding signal is 11400 fluorescence intensity (a.u.).
With “TAGCATATCATACTCCCTCCGTCACATTTTAACTGCAGCCCGGAGTCACCTAGTGCAG”, the binding signal is 8210 fluorescence intensity (a.u.).
As to “GGAGACTGAGTATGATAGGTGGGGCCATTTTCGTTTTTGCCGGAGTCACCTAGTGCAG”, the binding signal was 8920 fluorescence intensity (a.u.).
Regarding “GTTGTCACCATTGTCCATGTGCTTAACTTGAAGAAAGTCTCGGAGTCACCTAGTGCAG”, the binding signal is 8310 fluorescence intensity (a.u.).
“CGCCGTGTCGCAGTTCATCCTGACTAGCTTCACTTCAGAACGGAGTCACCTAGTGCAG”: the binding signal was 9460 fluorescence intensity (a.u.).
On to “GGATTTGTGTTTGTCCTTTTTCTTTTAGCTTTCTTGGCAGCGGAGTCACCTAGTGCAG”, for which the binding signal is 11100 fluorescence intensity (a.u.).
As for “GTTTTTATACGGATAGCGGGACTACCCACTTGCATCCCTACGGAGTCACCTAGTGCAG”, the binding signal was 8360 fluorescence intensity (a.u.).
“CCACCTGATCTTCGTTGTACCTGGGGTTGGCTGCAGCAACCGGAGTCACCTAGTGCAG”: the binding signal is 9840 fluorescence intensity (a.u.).
Consider “AAGTATTTCTCTCTCGTTCTGCTCTCTGTTCATCCTCTTCCGGAGTCACCTAGTGCAG”, for which the binding signal is 10800 fluorescence intensity (a.u.).
Regarding “AGACCTGTCATAATCTTTATATTGATTCCATCTTCTTTTTCGGAGTCACCTAGTGCAG”, the binding signal was 8650 fluorescence intensity (a.u.).
Next, “TTCCTTCCTTTTCCACGCGACTCTCTCCTTCCGGCTTCCGCGGAGTCACCTAGTGCAG”: 9630 fluorescence intensity (a.u.).
In the case of “TCCGGGGCTTTTTTGGCTGGCGTGTTCGCTTCCCGTGATACGGAGTCACCTAGTGCAG”, the binding signal was 9160 fluorescence intensity (a.u.).
Consider “AGCTCTTTTTATTTTTCTATTTTTAGTTTTTTGCCTTTTTCGGAGTCACCTAGTGCAG”, for which the binding signal was 13500 fluorescence intensity (a.u.).
The result for “CGTCGTTTCGCAACTCCCTCACTTTTATCGCGCCGTTGATCGGAGTCACCTAGTGCAG” reads 9080 fluorescence intensity (a.u.); that for “AACCTCCTGCAGCAGAGCCCCGATGTCGTCCACCAGTTCTCGGAGTCACCTAGTGCAG”, 9620 fluorescence intensity (a.u.); that for “AACCATCATGACCGGCTACCACTAAGCTGCGCCTGTCTACCGGAGTCACCTAGTGCAG”, 8700 fluorescence intensity (a.u.).
As for “GTGACCCGCGGCGACTTCCCCGACGGCTTCGTCTTCGGCGCGGAGTCACCTAGTGCAG”, the binding signal is 10400 fluorescence intensity (a.u.).
Turning to “ACATTATTTGCTGGGTCTAATCGTACTGACAGATACTCTGCGGAGTCACCTAGTGCAG”, the binding signal was 8370 fluorescence intensity (a.u.).
“CTTTTCTTTTCCTTTATTTTTTTCTTTTCTTTTTTTTTATCGGAGTCACCTAGTGCAG”: the binding signal was 9580 fluorescence intensity (a.u.).
For the sequence “CTTGTAATGTCAGTTTGTGGCTTATTTACATTGCATTTTTCGGAGTCACCTAGTGCAG”, the binding signal is 10600 fluorescence intensity (a.u.).
“CTGTGCACGCGGAAACTCGGTGATCTTGATTTATAACCTGCGGAGTCACCTAGTGCAG”: the binding signal is 8160 fluorescence intensity (a.u.).
The result for “GTCATCCGGGTCCAATTGCCATCACCACTCTCCAACATTTCGGAGTCACCTAGTGCAG” reads 12500 fluorescence intensity (a.u.); that for “TCTGTCAAAGTTGTTTCACCCACCATGCAATTTACCCATTCGGAGTCACCTAGTGCAG”, 9370 fluorescence intensity (a.u.); that for “TTGTTCTTCATTTACACAGAAAGATATATGTTGCTTTCTTCGGAGTCACCTAGTGCAG”, 8260 fluorescence intensity (a.u.).
As for “GCCCATGCCTACCTGCTGCTGTGCCTTCTTCCTATTGAATCGGAGTCACCTAGTGCAG”, the binding signal was 9950 fluorescence intensity (a.u.).
With “TACCCACACCGATCTGCCGCTGCCCAGTTCCACCTACTTTCGGAGTCACCTAGTGCAG”, the binding signal is 16800 fluorescence intensity (a.u.).
“ATTGGTAGTATGTCCATCTTCTTCTTTTTTTGCCGGTTAACGGAGTCACCTAGTGCAG”: the binding signal is 8960 fluorescence intensity (a.u.).
As to “CCCTTCTCCGGCCTCTCCGTGCTTTGCTGTTCTTTGCTTTCGGAGTCACCTAGTGCAG”, the binding signal is 9220 fluorescence intensity (a.u.).
Consider “CTCCGGATCCGCACACCTCCTGTTAATCCGCCGATTCTTCCGGAGTCACCTAGTGCAG”, for which the binding signal is 10800 fluorescence intensity (a.u.).
